Results taken from US7049292B2, “Therapeutically effective peptides related to preproinsulin” (King's College London, priority 2004, dated 2006).
A number of entries come with more than one value. They are shown here; other results are not. An entry can have further records. Values that stand side by side differ for a reason that is not stated; some may be repeats, others may stem from another dose, organism or construct than stated.

Test system: anti-inflammatory (IL-10 secreting) CD4+ T lymphocytes in PBMCs
Test: IL-10 cytokine ELISPOT (tolerance assay) of PBMCs cultured with peptide
Type: cell-based, human

CC(C)C[C@H](NC(=O)[C@H](C)NC(=O)[C@H](CC(C)C)NC(=O)[C@@H]1CCCN1C(=O)[C@H](CCC(N)=O)NC(=O)[C@H](CC(C)C)NC(=O)[C@H](CO)NC(=O)CNC(=O)[C@H](C)NC(=O)CNC(=O)[C@@H]1CCCN1C(=O)CNC(=O)CNC(=O)CN)C(=O)N[C@@H](CCC(=O)O)C(=O)NCC(=O)N[C@@H](CO)C(=O)N[C@@H](CC(C)C)C(=O)N[C@@H](CCC(N)=O)C(=O)N[C@@H](CCCCN)C(=O)O
IL-10 response, stimulation index (SI): 7.0, 3.2, 19.2
